Reference: PubChem BioAssay AID1259424 (University of Nebraska Medical Center, 2018)

- Screen: 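Seek colon cancer survival genes behaving like KSR1, using a six-gene signature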 (primary screen)
- System: human HCT116 colon cancer cells
- Knock-down reagent: siRNA pool against human genes, 50 nM
- Measured: 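Log2 levels of six mRNAs (branched-DNA multiplex), adjusted by two reference genes and the non-targeting median, then scored against the average KSR1 knockdown pattern as Pearson r and euclidean distance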
- Reading the numbers: mean correlation with KSR1 profile and KSR1 correlation: higher = expression change more like KSR1 knockdown; mean distance from KSR1 profile: higher = expression change less like KSR1 knockdown
Shown is an unselected part of about 14,000 deposited reagents. 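Higher correlation or smaller distance means closer resemblance to KSR1 loss; control wells, including KSR1 knockdowns, recur on many plates.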 Not stated in the record: the time to read-out.

no.	Gene	mean correlation with KSR1 profile	mean distance from KSR1 profile	KSR1 correlation, replicate 1	KSR1 correlation, replicate 2	KSR1 correlation, replicate 3
1	H4C8	-0.207	2.5	-0.3	-0.136	-0.209
2	CRYM	-0.587	3.08	-0.602	-0.566	-0.314
3	ATP5PF	0.0692	2.98	-0.0206	0.209	0.179
4	SLC43A1	0.337	2.06	0.282	0.332	0.403
5	ELMO2	-0.554	2.69	-0.627	-0.441	-0.525
6	DBI	-0.272	2.59	-0.131	-0.307	-0.424
7	RUFY3	-0.0642	1.83	0.133	-0.287	0.0343
8	ARHGAP31	-0.623	2.85	-0.528	-0.419	-0.543
9	ITGA7	0.372	0.987	0.468	0.137	0.347
10	ARPC2	-0.392	2.87	-0.299	-0.343	-0.541
11	WDR45	-0.225	3.2	-0.143	-0.315	-0.241
12	GPR22	0.00221	2.53	0.0235	-0.115	-0.217

Individual results from the entries so far.
Result for ATP5PF under “mean correlation with KSR1 profile”: 0.0692
For “KSR1 correlation, replicate 1”, ELMO2 has -0.627
For “mean correlation with KSR1 profile”, ARHGAP31 shows -0.623
Under “mean correlation with KSR1 profile”, CRYM reads -0.587

Next reagents follow.
no.	Gene	mean correlation with KSR1 profile	mean distance from KSR1 profile	KSR1 correlation, replicate 1	KSR1 correlation, replicate 2	KSR1 correlation, replicate 3
13	MCMBP	0.61	1.27	0.649	0.659	0.573
14	SERPINH1	-0.344	2.43	-0.296	-0.15	-0.383
15	VPS35L	-0.689	2.55	-0.769	-0.564	-0.837
16	THBS2	-0.104	2	-0.106	-0.213	-0.0284
17	IFT122	0.212	2.87	0.212	0.146	0.341
18	MBD3	0.118	2.65	0.123	0.0794	-0.0731
19	TMX3	-0.198	2.7	-0.235	-0.341	-0.302
20	KRT38	-0.291	2.25	-0.229	-0.322	-0.213
21	ARNT	-0.689	1.9	-0.496	-0.64	-0.735
22	SYNDIG1	-0.718	3.25	-0.675	-0.571	-0.81
23	SAA2	0.516	2.6	0.43	0.431	0.666
24	EGFL6	0.437	1.72	0.399	-0.0436	0.656
25	MYCNOS	0.209	1.77	-0.348	0.29	0.152
26	SLC24A2	-0.013	1.97	0.314	-0.31	-0.266
27	UVRAG	0.408	2.91	0.42	0.347	0.396
28	JCAD	-0.634	1.81	-0.53	-0.952	-0.682
29	CPNE5	0.114	1.5	0.0467	0.27	-0.123
30	TLE2	0.412	1.47	0.309	0.578	-0.0561
31	SLC35G5	0.858	1.67	0.862	0.783	0.898
32	HSD17B12	0.00764	1.74	0.115	-0.265	0.0164
33	ZFAND5	-0.0576	1.42	0.134	-0.137	-0.139
34	LAMB3	-0.0381	4.16	0.0661	0.102	-0.148
